# Results of single-concentration screens

Sequences of proteins named here, by UniProt entry; tags and fusion partners are left off. Residues count along the entry.
UniProt Q8IDJ8, 1-583: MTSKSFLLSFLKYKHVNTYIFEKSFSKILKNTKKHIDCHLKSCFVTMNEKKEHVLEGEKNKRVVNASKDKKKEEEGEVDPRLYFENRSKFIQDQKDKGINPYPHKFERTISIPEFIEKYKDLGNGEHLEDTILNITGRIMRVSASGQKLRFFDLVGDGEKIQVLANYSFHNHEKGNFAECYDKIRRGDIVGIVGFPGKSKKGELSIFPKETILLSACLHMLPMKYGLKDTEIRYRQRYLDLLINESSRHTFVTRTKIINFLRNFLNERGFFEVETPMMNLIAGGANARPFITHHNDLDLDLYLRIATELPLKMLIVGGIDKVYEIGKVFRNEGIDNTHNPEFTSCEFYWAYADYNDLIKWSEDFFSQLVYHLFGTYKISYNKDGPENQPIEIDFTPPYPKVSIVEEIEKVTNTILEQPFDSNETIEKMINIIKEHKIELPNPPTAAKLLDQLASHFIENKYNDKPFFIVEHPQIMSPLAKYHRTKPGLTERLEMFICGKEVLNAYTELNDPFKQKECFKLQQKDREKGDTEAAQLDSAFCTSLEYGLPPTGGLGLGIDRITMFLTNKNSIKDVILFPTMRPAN
UniProt A4I591, 1-473: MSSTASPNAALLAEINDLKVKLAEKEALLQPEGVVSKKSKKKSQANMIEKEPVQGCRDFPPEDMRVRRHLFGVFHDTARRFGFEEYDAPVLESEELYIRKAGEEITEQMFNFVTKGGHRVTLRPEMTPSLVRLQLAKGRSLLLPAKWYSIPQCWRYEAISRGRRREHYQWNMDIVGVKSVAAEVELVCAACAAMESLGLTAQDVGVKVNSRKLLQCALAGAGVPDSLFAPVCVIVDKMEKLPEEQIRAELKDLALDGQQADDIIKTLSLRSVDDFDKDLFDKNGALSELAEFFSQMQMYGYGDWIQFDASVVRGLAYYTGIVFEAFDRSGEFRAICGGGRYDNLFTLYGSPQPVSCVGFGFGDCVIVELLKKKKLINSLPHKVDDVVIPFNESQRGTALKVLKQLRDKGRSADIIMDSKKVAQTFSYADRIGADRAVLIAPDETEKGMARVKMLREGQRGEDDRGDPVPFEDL

Values are the deposited “Percent Effect”, in %.
The controls that fix the scale are not given in the record; negative values are as filed.
This is an unselected part of the compounds tested.
A dash means the value is not listed here; it may have been measured.

T. brucei: 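Whole-parasite assay of Trypanosoma brucei over 72 hours; the read-out is not stated. Compounds at 30 µM. The record gives no direction; compounds that gave an IC50 in retests scored well above the rest, so higher reads as stronger inhibition. Values scatter widely below zero; nearly all retest evidence comes from the higher of the two concentrations used. Of about 64,000 compounds tested this way, about 940 (1.5%) reached 50% or more in at least one test.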
PfKRS1: 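Enzyme assay of the cytosolic lysyl-tRNA synthetase in 384-well plates, read by luminescence. Target: Lysine-tRNA ligase, Plasmodium falciparum 3D7 (UniProt Q8IDJ8). Compounds at 30 µM. Direction is inferred from only a few compounds that gave an IC50; most scored high, so higher reads as stronger inhibition. About 69,000 compounds were tested under these conditions; 0.071% (about 49) showed 50% or more at least once.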
LiHisRS: 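Histidine-tRNA ligase, Leishmania infantum (UniProt A4I591). Enzyme assay of histidyl-tRNA synthetase; the read-out is not stated. Concentration: 30 µM. Direction is inferred from retests: higher values go with stronger inhibition. The assay is labelled LdHisRS but filed under L. infantum. Size under these conditions: about 69,000 compounds, about 410 of them at 50% or above in at least one test.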
Toxoplasma: 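Assay of Toxoplasma gondii numbers, read through their beta-galactosidase reporter with a colour substrate. Compounds at 10 µM. The record gives no direction; the compounds picked for IC50 retests had high values, so higher reads as fewer parasites. Of about 67,000 compounds tested this way, about 260 (0.38%) reached 50% or more in at least one test.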

Compound	T. brucei	PfKRS1	LiHisRS	Toxoplasma
COc1ccc(CN2CCCC3(CC2)CNC(=O)O3)cc1OC (stereo unspecified)	-20.07%	5.742%	22.37%	-1.546%
CCN1CCCC1CN(Cc1cc[nH]n1)CC1CCN(CCOC)CC1 (stereo unspecified)	-20.35%	1.323%	4.444%	1.006%
CCN(CC)C(=O)COc1nc(C(C)C)no1	-13.3%	0.6894%	18.48%	14.96%
CCc1nc(-c2cccc(C(=O)O)c2)no1	-10.94%	-0.1919%	8.247%	-6.768%
Cc1ccnc(OC[C@]23COC[C@H]2CN(C(=O)c2ccnn2C)C3)n1	-	2.084%	13.89%	-
OCc1ccc(CN(CCCn2ccnc2)Cc2cccnc2)o1	11.86%	6.09%	22.83%	14.56%
Cn1ccnc1COc1ccc(CO)cc1	-26.33%	4.973%	10.96%	0.1059%
[H][C@@]12CO[C@@H](CNS(C)(=O)=O)[C@]1([H])CCN(C(=O)c1ccccc1)C2	-0.7612%	-	-	0.338%
O=S(=O)(c1cncc(F)c1)N1CCC2(CCCCC2)C1	-	1.847%	18.75%	5.628%
Cn1cc(C(=O)N2CCN(Cc3ccsc3)CC2)cn1	-35.06%	1.178%	1.786%	22.09%
CN1C(=O)C2(CC(=O)Nc3[nH]ncc32)c2cc(F)ccc21 (stereo unspecified)	-25.09%	-0.1338%	-5.263%	1.16%
CC1CCN(S(=O)(=O)N2CCC(Oc3cnccn3)CC2)CC1	5.711%	2.141%	15.62%	-1.605%
CN(C)[C@@H]1CCN(c2ncc(F)cn2)[C@H]1Cc1ccccc1	-	2.348%	22.22%	-
COc1ccc(C2CCCN2C(=O)c2csc(NC(C)=O)n2)cc1 (stereo unspecified)	15.38%	-1.681%	19.18%	3.706%
CCc1nc(C2CCCN2C(=O)c2cc(Cl)c[nH]2)no1 (stereo unspecified)	6.341%	0.3286%	3.448%	3.199%
OCc1ccc(-c2nccn2CCc2nc3c(s2)CCCC3)o1	-17.5%	9.569%	17.11%	-0.2378%
Cc1c(C(=O)N2CCCOCC2)nnn1-c1cccc2cnccc12	-27.66%	-1.021%	-2.083%	-3.816%
COCCC(=O)N1CCC2(CCN(Cc3cccc(F)c3)CC2)CC1.O=C(O)C(F)(F)F	-26.79%	-	-	-3.39%
CCOCCCNC(=O)c1cn(C(C)(C)C)c2ncccc12	-18.93%	-0.8153%	19.8%	-6.857%
COc1cccc2c1OCC(CNC(=O)Cc1c(C)nc(N)nc1C)C2 (stereo unspecified)	-244.3%	1.058%	25%	1.422%
[H][C@@]12CCN(C[C@@H]1CN1CCCC1)[C@@H](CNC(=O)c1ccco1)C2	-0.6505%	-	-	14.83%
COc1nc(N2CCNCC2)ncc1Br	-0.964%	0.03791%	10%	0.7901%
O=C(C1CCC1)N1CCC(c2ncc3c(n2)CCNC3)CC1	16.35%	1.468%	38%	9.393%
CNS(=O)(=O)CC(=O)N(C1CCCC1)C1CC1	-0.8356%	-3.225%	13.95%	2.393%
Cc1ccoc1CNCc1nnc2n1CC(C(F)(F)F)CC2 (stereo unspecified)	-39.82%	5.226%	12.82%	3.562%
COC(=O)C(c1cc(F)ccc1F)N(C)C(=O)c1csnn1 (stereo unspecified)	-1.86%	-0.242%	10.81%	-2.643%
O=C(CCc1nccs1)N1CCN(c2nccs2)CC1	-	-1.124%	4.425%	7.896%
CCc1nsc(N2CCC3(CC2)OCCO3)n1	-40.5%	2.53%	16.13%	11.15%
CN1CCC(N(Cc2ccccc2)C(=O)c2nccn3ccnc23)CC1	-25.42%	5.118%	6.667%	8.239%
c1ccc(CN(Cc2cccc3cnccc23)CC2CCCO2)nc1 (stereo unspecified)	-4.399%	3.067%	0%	4.157%
Cc1ccc(OCC2CCCN(c3nc(CO)cs3)C2)cc1 (stereo unspecified)	49.4%	3.755%	26.6%	18.15%
COc1ccc(C(C)NCc2nnc(C)s2)cc1F (stereo unspecified)	-66.57%	-0.4996%	10.32%	6.687%
CN(Cc1cc(C(C)(C)C)n[nH]1)C(=O)c1ccccc1C1CCNC1 (stereo unspecified)	13.75%	-1.646%	6.25%	-0.9377%
CC(C)NC(=O)CN(C)C1CCN(c2ccc(Cl)cn2)CC1	-1.048%	-3.322%	0%	-3.837%
CN(C)C(=O)CN1CCOCC2(CCN(c3ncc(F)cn3)CC2)C1.O=C(O)C(F)(F)F	-72.88%	-	-	-10.63%
CN1CC[C@H](c2nnc(Cc3c[nH]c4ccccc34)o2)C1	14.3%	4.83%	24.32%	-0.6693%
Cn1cc(S(=O)(=O)Nc2c(F)cccc2N2CCCC2)cn1	-13.03%	0.5634%	12.9%	-
COc1cccc(-c2noc(C3CCN(Cc4cccs4)C3)n2)c1 (stereo unspecified)	-	4.023%	5.714%	-
[H][C@@]12CCN(C(=O)N(C)C)[C@]1([H])CC[C@@H](C(=O)NC)O2	-62.43%	-	-	-0.05394%
CS(=O)(=O)N1CCN(c2cc(-n3cccc3)ncn2)CC1	-13.4%	1.342%	8.602%	3.838%
CCN(CCOC)C(=O)c1cc(COc2ccc3c(c2)CCCC3)on1	26.23%	3.778%	12%	-1.309%
O=C(Nc1ccc(F)cc1)C1CNCCN1C(=O)CCO (stereo unspecified)	-57.85%	-6.302%	-6%	-15.69%
O=C(O)C(F)(F)F.c1cnc(NC2COC3(CCN(Cc4ccoc4)CC3)C2)nc1 (stereo unspecified)	-22.28%	-	-	-1.457%
Cc1ccc(C(CNCc2c[nH]nc2C)N(C)C)cc1 (stereo unspecified)	-	0.03343%	18.97%	-
CN1C(=O)CC2(CCNCC2)c2ccccc21	-35.39%	12.2%	17.24%	-5.124%
CC(=O)N(C)Cc1ncn2c1CN(C(=O)CC1CC1)CCC2	-6.432%	1.074%	1.98%	12.11%
CN1CCN(c2nccc(-c3cncnc3C3CCCCC3)n2)CC1	-9.341%	4.673%	22.86%	17.78%
Cc1n[nH]c(C)c1CC(=O)NCCc1ccccc1	-27.13%	-1.149%	-1.087%	20.62%
CN1CCc2c1nc1c(c2N)CCC1	-22.03%	5.11%	11.9%	-1.248%
O=S(=O)(N1CCCCCC1)N1CCc2sccc2C1	-10.8%	5.929%	14.89%	-12.68%
CCC(CNC(=O)c1cc(OC)ccc1Br)N1CCc2ccccc2C1 (stereo unspecified)	-15.77%	-6.614%	1.923%	-2.885%
CN(CC(=O)NC(Cc1ccsc1)c1cccnc1)Cc1cccnc1 (stereo unspecified)	-	0.1554%	18.79%	-
CCn1cc2c(n1)C(COC)CN(C(=O)c1ccccn1)C2 (stereo unspecified)	37.38%	1.038%	14.55%	-3.389%
CCc1ccc(C(=O)NCc2ccnc(C)n2)cc1	-16.14%	5.32%	-2.74%	-20.21%
Cc1ccc(Cl)cc1NC(=O)C1CC(=O)N(Cc2ccccn2)C1 (stereo unspecified)	8.87%	2.414%	15.09%	-2.806%
CNC(=O)c1c[nH]nc1C1CCCN1c1ncccn1 (stereo unspecified)	-17.11%	1.616%	14.18%	21.34%
CNC(=O)c1nc(COc2c(C)occc2=O)no1	-39%	1.437%	13.04%	16.66%
COc1cccc(Cn2c(C3CCNCC3)cc3cccnc32)c1	-	2.476%	9.859%	-
Cc1nc(N2CCC(O)(c3ccc(F)cc3)CC2)c2c(C)nn(C)c2n1	-70.96%	-0.2937%	8.197%	16.84%
COc1ccc(-c2ccnc3c2C(=O)CCC3)cc1	7.705%	2.304%	17.14%	-6.199%
CN(Cc1n[nH]c2c1CCCC2)c1cc(N2CCOCC2)nc(N)n1	-10.23%	-0.147%	19.35%	-
O=C(NC1CC1)c1ccn(COc2c(Cl)cccc2Cl)n1	-25.23%	3.429%	1.235%	0.4577%
Cc1noc(C)c1CN1CC[C@H]2OCC[C@@H](C(=O)N3CCCO3)[C@@H]2C1	-	3.868%	13.21%	-
Cc1ccc(NC2CCN(C(=O)CCc3nccs3)CC2)nn1	-9.998%	1.246%	5.357%	-6.814%
Cn1cc(C(=O)NC(Cn2cccn2)C(C)(C)C)cn1 (stereo unspecified)	-4.857%	2.878%	-20.62%	9.315%
CC(NC(=O)NCCCn1cncn1)c1ccccc1Cl (stereo unspecified)	-15.68%	11.47%	-9.459%	2.871%
CC(C)c1nc2n(n1)CC(NCc1ncc(C(C)(C)C)o1)CC2 (stereo unspecified)	-14.04%	0.3458%	13.16%	5.723%
CN(C)S(=O)(=O)N1CCC2(COCc3cnc(NCC4CC4)nc32)C1 (stereo unspecified)	-49.38%	-3.364%	6.452%	12.2%

The first 5 entries again:

Compound	T. brucei	PfKRS1	LiHisRS	Toxoplasma
COc1ccc(CN2CCCC3(CC2)CNC(=O)O3)cc1OC (stereo unspecified)	-20.07%	5.742%	22.37%	-1.546%
CCN1CCCC1CN(Cc1cc[nH]n1)CC1CCN(CCOC)CC1 (stereo unspecified)	-20.35%	1.323%	4.444%	1.006%
CCN(CC)C(=O)COc1nc(C(C)C)no1	-13.3%	0.6894%	18.48%	14.96%
CCc1nc(-c2cccc(C(=O)O)c2)no1	-10.94%	-0.1919%	8.247%	-6.768%
Cc1ccnc(OC[C@]23COC[C@H]2CN(C(=O)c2ccnn2C)C3)n1	-	2.084%	13.89%	-

Source: ChEMBL document CHEMBL3988442, “University of Dundee, Small-Polar-MMV Screening Library” (2021).